# Assay results reported in paper PMC6713354, “Structural and biochemical studies of an NB-ARC domain from a plant NLR immune receptor” (PLoS ONE, 2019).
# Results are given in words; binding and its absence hold for the method and conditions named.
# Tests used:
# Experiment in all cases: SEC; analytical gel filtration, Superdex S75 10/300 GL, 20 mM HEPES pH 7.5, 150 mM NaCl; protein diluted to 50 μM, 100 μL loaded; standard curve from a low-molecular weight calibration kit; both purified
# [1] = biological target: NRC1 NB-ARC domain, wild-type, expressed in E. coli (tomato) (UniProt A1X877)
# [2] = biological target: NRC1 NB-ARC domain, wild-type, expressed in Sf9 cells (tomato) (UniProt A1X877)
# [3] = biological target: NRC1 NB-ARC^D268N (tomato) (UniProt A1X877)
binder,measurement,setting,value
"NRC1 NB-ARC domain, wild-type, expressed in E. coli (domain or fragment, UniProt A1X877 150-494) PVVEEDDVVGFDDEAQTVIDRLLEGSGDLEVIPVVGMPGLGKTTLATKIFKHPKIEYEFFTRLWLYVSQSYKTRELYLNIISKFTGNTKHCRDMSEKDLALKVQEILEEGGKYLIVLDDVWSTDAWDRIKIAFPKNDKGNRVLLTTRDHRVARYCNRSPHDLKFLTDEESWILLEKRAFHKAKCLPELETNGKSIARKCKGLPLAIVVIAGALIGKSKTIKEWEQVDQSVGEHFINRDQPNSCDKLVRMSYDVLPYDWKACFLYFGTFPRGYLIPARKLIRLWIAEGFIQYRGDLSPECKAEEYLNELVNRNLVMVMQRTVDGQIKTCRVHDMLYEFCWQEATTE",binding,[1],no binding (tested: 50 μM)
"NRC1 NB-ARC domain, wild-type, expressed in Sf9 cells (domain or fragment, UniProt A1X877 150-494) PVVEEDDVVGFDDEAQTVIDRLLEGSGDLEVIPVVGMPGLGKTTLATKIFKHPKIEYEFFTRLWLYVSQSYKTRELYLNIISKFTGNTKHCRDMSEKDLALKVQEILEEGGKYLIVLDDVWSTDAWDRIKIAFPKNDKGNRVLLTTRDHRVARYCNRSPHDLKFLTDEESWILLEKRAFHKAKCLPELETNGKSIARKCKGLPLAIVVIAGALIGKSKTIKEWEQVDQSVGEHFINRDQPNSCDKLVRMSYDVLPYDWKACFLYFGTFPRGYLIPARKLIRLWIAEGFIQYRGDLSPECKAEEYLNELVNRNLVMVMQRTVDGQIKTCRVHDMLYEFCWQEATTE",binding,[2],no binding (tested: 50 μM)
"NRC1 NB-ARC^D268N (domain or fragment, UniProt A1X877 150-494) PVVEEDDVVGFDDEAQTVIDRLLEGSGDLEVIPVVGMPGLGKTTLATKIFKHPKIEYEFFTRLWLYVSQSYKTRELYLNIISKFTGNTKHCRDMSEKDLALKVQEILEEGGKYLIVLDNVWSTDAWDRIKIAFPKNDKGNRVLLTTRDHRVARYCNRSPHDLKFLTDEESWILLEKRAFHKAKCLPELETNGKSIARKCKGLPLAIVVIAGALIGKSKTIKEWEQVDQSVGEHFINRDQPNSCDKLVRMSYDVLPYDWKACFLYFGTFPRGYLIPARKLIRLWIAEGFIQYRGDLSPECKAEEYLNELVNRNLVMVMQRTVDGQIKTCRVHDMLYEFCWQEATTE",binding,[3],no binding (tested: 50 μM)
